Experimental data published in the supplement of paper PMC8728848.
This is one part of the list.

Tests used:
Assay in all cases: glycan array binding signal (z-score within array); higher = stronger binding
Settings in all cases: glycan notation: IUPAC condensed, linker removed; mutation: R201A
Neu5Ac(a2-3)Gal = biological target: Neu5Ac(a2-3)Gal
Summary of the method: (§1)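 Glycan array data were curated from 3228 arrays in the Consortium for Functional Glycomics database and kept only where the protein sequence was available. Glycan names were converted to IUPAC-condensed notation, and columns mapping to the same glycan were averaged. The binding signal is a within-array Z-score, averaged across arrays of the same protein sequence at different concentrations or buffers and across linkers. Negative Z-scores can be read as non-binding.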

[1] = biological target: Neu5Ac(a2-3)Gal(b1-3)GalNAc
Summary of the method: as §1

[2] = biological target: Neu5Ac(a2-3)Gal(b1-3)GalNAc(b1-3)Gal(a1-4)Gal(b1-4)Glc
Summary of the method: as §1

[3] = biological target: Neu5Ac(a2-3)Gal(b1-3)GalNAc(b1-4)Gal(b1-4)Glc
Summary of the method: as §1

[4] = biological target: Neu5Ac(a2-3)Gal(b1-3)GalNAc(b1-4)[Neu5Ac(a2-3)]Gal(b1-4)Glc
Summary of the method: as §1

[5] = biological target: Neu5Ac(a2-3)Gal(b1-3)GalNAc(b1-4)[Neu5Ac(a2-8)Neu5Ac(a2-3)]Gal(b1-4)Glc
Summary of the method: as §1

[6] = biological target: Neu5Ac(a2-3)Gal(b1-3)GalNAc6S
Summary of the method: as §1

[7] = biological target: Neu5Ac(a2-3)Gal(b1-3)GlcNAc
Summary of the method: as §1

[8] = biological target: Neu5Ac(a2-3)Gal(b1-3)GlcNAc(b1-2)Man
Summary of the method: as §1

[9] = biological target: Neu5Ac(a2-3)Gal(b1-3)GlcNAc(b1-2)Man(a1-3)[GlcNAc(b1-4)][Neu5Ac(a2-3)Gal(b1-3)GlcNAc(b1-2)Man(a1-6)]Man(b1-4)GlcNAc(b1-4)GlcNAc
Summary of the method: as §1

[10] = biological target: Neu5Ac(a2-3)Gal(b1-3)GlcNAc(b1-2)Man(a1-3)[Neu5Ac(a2-3)Gal(b1-3)GlcNAc(b1-2)Man(a1-6)]Man(b1-4)GlcNAc(b1-4)GlcNAc
Summary of the method: as §1

[11] = biological target: Neu5Ac(a2-3)Gal(b1-3)GlcNAc(b1-2)[Neu5Ac(a2-3)Gal(b1-3)GlcNAc(b1-4)]Man(a1-6)[Neu5Ac(a2-3)Gal(b1-3)GlcNAc(b1-2)Man(a1-3)]Man(b1-4)GlcNAc(b1-4)GlcNAc
Summary of the method: as §1

[12] = biological target: Neu5Ac(a2-3)Gal(b1-3)GlcNAc(b1-3)Gal(b1-3)GlcNAc
Summary of the method: as §1

[13] = biological target: Neu5Ac(a2-3)Gal(b1-3)GlcNAc(b1-3)Gal(b1-4)GlcNAc
Summary of the method: as §1

[14] = biological target: Neu5Ac(a2-3)Gal(b1-3)GlcNAc(b1-3)GalNAc
Summary of the method: as §1

[15] = biological target: Neu5Ac(a2-3)Gal(b1-3)GlcNAc(b1-6)GalNAc
Summary of the method: as §1

[16] = biological target: Neu5Ac(a2-3)Gal(b1-3)GlcNAc6S
Summary of the method: as §1

[17] = biological target: Neu5Ac(a2-3)Gal(b1-3)[Fuc(a1-4)]GlcNAc
Summary of the method: as §1

[18] = biological target: Neu5Ac(a2-3)Gal(b1-3)[Fuc(a1-4)]GlcNAc(b1-3)Gal(b1-3)[Fuc(a1-4)]GlcNAc
Summary of the method: as §1

[19] = biological target: Neu5Ac(a2-3)Gal(b1-3)[Fuc(a1-4)]GlcNAc(b1-3)Gal(b1-4)[Fuc(a1-3)]GlcNAc
Summary of the method: as §1

[20] = biological target: Neu5Ac(a2-3)Gal(b1-3)[GlcNAc(b1-6)]GalNAc
Summary of the method: as §1

[21] = biological target: Neu5Ac(a2-3)Gal(b1-3)[Neu5Ac(a2-6)]GalNAc
Summary of the method: as §1

[22] = biological target: Neu5Ac(a2-3)Gal(b1-3)[Neu5Ac(a2-6)]GlcNAc(b1-3)[Fuc(a1-3)[Gal(b1-4)]GlcNAc(b1-6)]Gal(b1-4)Glc
Summary of the method: as §1

[23] = biological target: Neu5Ac(a2-3)Gal(b1-3)]Neu5Ac(a2-3)Gal(b1-4)]GlcNAc
Summary of the method: as §1

Neu5Ac(a2-3)Gal(b1-4)Glc = biological target: Neu5Ac(a2-3)Gal(b1-4)Glc
Summary of the method: as §1

[24] = biological target: Neu5Ac(a2-3)Gal(b1-4)GlcNAc
Summary of the method: as §1

[25] = biological target: Neu5Ac(a2-3)Gal(b1-4)GlcNAc(b1-2)Man
Summary of the method: as §1

[26] = biological target: Neu5Ac(a2-3)Gal(b1-4)GlcNAc(b1-2)Man(a1-3)[GlcNAc(b1-4)][Neu5Ac(a2-3)Gal(b1-4)GlcNAc(b1-2)Man(a1-6)]Man(b1-4)GlcNAc(b1-4)GlcNAc
Summary of the method: as §1

[27] = biological target: Neu5Ac(a2-3)Gal(b1-4)GlcNAc(b1-2)Man(a1-3)[Neu5Ac(a2-3)Gal(b1-4)GlcNAc(b1-2)Man(a1-6)]Man(b1-4)GlcNAc(b1-4)GlcNAc
Summary of the method: as §1

[28] = biological target: Neu5Ac(a2-3)Gal(b1-4)GlcNAc(b1-2)Man(a1-3)[Neu5Ac(a2-3)Gal(b1-4)GlcNAc(b1-2)Man(a1-6)]Man(b1-4)GlcNAc(b1-4)[Fuc(a1-6)]GlcNAc
Summary of the method: as §1

[29] = biological target: Neu5Ac(a2-3)Gal(b1-4)GlcNAc(b1-2)Man(a1-3)[Neu5Ac(a2-6)Gal(b1-4)GlcNAc(b1-2)Man(a1-6)]Man(b1-4)GlcNAc(b1-4)GlcNAc
Summary of the method: as §1

[30] = biological target: Neu5Ac(a2-3)Gal(b1-4)GlcNAc(b1-2)[Neu5Ac(a2-3)Gal(b1-4)GlcNAc(b1-4)]Man(a1-3)[GlcNAc(b1-4)][Neu5Ac(a2-3)Gal(b1-4)GlcNAc(b1-2)[Neu5Ac(a2-3)Gal(b1-4)GlcNAc(b1-6)]Man(a1-6)]Man(b1-4)GlcNAc(b1-4)GlcNAc
Summary of the method: as §1

[31] = biological target: Neu5Ac(a2-3)Gal(b1-4)GlcNAc(b1-2)[Neu5Ac(a2-3)Gal(b1-4)GlcNAc(b1-4)]Man(a1-3)[GlcNAc(b1-4)][Neu5Ac(a2-3)Gal(b1-4)GlcNAc(b1-4)Man(a1-6)]Man(b1-4)GlcNAc(b1-4)GlcNAc
Summary of the method: as §1

[32] = biological target: Neu5Ac(a2-3)Gal(b1-4)GlcNAc(b1-2)[Neu5Ac(a2-3)Gal(b1-4)GlcNAc(b1-6)]Man(a1-6)[Neu5Ac(a2-3)Gal(b1-4)GlcNAc(b1-2)Man(a1-3)][GlcNAc(b1-4)]Man(b1-4)GlcNAc(b1-4)GlcNAc
Summary of the method: as §1

[33] = biological target: Neu5Ac(a2-3)Gal(b1-4)GlcNAc(b1-3)Gal
Summary of the method: as §1

[34] = biological target: Neu5Ac(a2-3)Gal(b1-4)GlcNAc(b1-3)Gal(b1-3)GlcNAc
Summary of the method: as §1

[35] = biological target: Neu5Ac(a2-3)Gal(b1-4)GlcNAc(b1-3)Gal(b1-4)GlcNAc
Summary of the method: as §1

B1: OS9 (Arabidopsis thaliana) (protein)
chain: MRGSHHHHHHGMASMTGGQQMGRDLYDDDDKSRLQIFPAHLVGTFSRNNREPKYKIEFLPEDSPFHPGDNLESMVMLDKHGNRFLCYLPKEEKATSGWTSSQQNISTVMMETQQLVKLKTPDELLQPLSEKCLFRQEGWWSYEFCHQKYVRQLHVEDENKIVQEFFLGTFDPEATAAFNQTVSDASTDASQRYHSHVYTNGTTCDLTGSPAEVEVRFVCAETRAMVTSITELSTCKYALTVQCPTLCKHPLFQLEKPVSHTIHCNAIPVEEDATRNKEEQAVDESPKMIADS
- glycan array binding signal (z-score) (Neu5Ac(a2-3)Gal): -0.76
- glycan array binding signal (z-score) [1]: 0.015
- glycan array binding signal (z-score) [2]: -0.854
- glycan array binding signal (z-score) [3]: 0.276
- glycan array binding signal (z-score) [4]: -0.662
- glycan array binding signal (z-score) [5]: -0.018
- glycan array binding signal (z-score) [6]: -1.18
- glycan array binding signal (z-score) [7]: 0.668
- glycan array binding signal (z-score) [8]: -0.442
- glycan array binding signal (z-score) [9]: 1.21
- glycan array binding signal (z-score) [10]: -0.911
- glycan array binding signal (z-score) [11]: -1.14
- glycan array binding signal (z-score) [12]: 1.08
- glycan array binding signal (z-score) [13]: -0.934
- glycan array binding signal (z-score) [14]: -0.046
- glycan array binding signal (z-score) [15]: -0.495
- glycan array binding signal (z-score) [16]: -0.775
- glycan array binding signal (z-score) [17]: -0.618
- glycan array binding signal (z-score) [18]: -0.446
- glycan array binding signal (z-score) [19]: -0.256
- glycan array binding signal (z-score) [20]: -0.397
- glycan array binding signal (z-score) [21]: 0.179
- glycan array binding signal (z-score) [22]: 0.799
- glycan array binding signal (z-score) [23]: 1.78
- glycan array binding signal (z-score) (Neu5Ac(a2-3)Gal(b1-4)Glc): 2.08
- glycan array binding signal (z-score) [24]: -0.367
- glycan array binding signal (z-score) [25]: -0.531
- glycan array binding signal (z-score) [26]: -0.348
- glycan array binding signal (z-score) [27]: -0.728
- glycan array binding signal (z-score) [28]: 0.474
- glycan array binding signal (z-score) [29]: -0.425
- glycan array binding signal (z-score) [30]: -0.729
- glycan array binding signal (z-score) [31]: -0.731
- glycan array binding signal (z-score) [32]: -0.773
- glycan array binding signal (z-score) [33]: -0.585
- glycan array binding signal (z-score) [34]: -0.881
- glycan array binding signal (z-score) [35]: 0.1
